From PMC10199339

Protein sequences, listed by entry. Tags and fused reporters are not part of them.
UniProt P46940: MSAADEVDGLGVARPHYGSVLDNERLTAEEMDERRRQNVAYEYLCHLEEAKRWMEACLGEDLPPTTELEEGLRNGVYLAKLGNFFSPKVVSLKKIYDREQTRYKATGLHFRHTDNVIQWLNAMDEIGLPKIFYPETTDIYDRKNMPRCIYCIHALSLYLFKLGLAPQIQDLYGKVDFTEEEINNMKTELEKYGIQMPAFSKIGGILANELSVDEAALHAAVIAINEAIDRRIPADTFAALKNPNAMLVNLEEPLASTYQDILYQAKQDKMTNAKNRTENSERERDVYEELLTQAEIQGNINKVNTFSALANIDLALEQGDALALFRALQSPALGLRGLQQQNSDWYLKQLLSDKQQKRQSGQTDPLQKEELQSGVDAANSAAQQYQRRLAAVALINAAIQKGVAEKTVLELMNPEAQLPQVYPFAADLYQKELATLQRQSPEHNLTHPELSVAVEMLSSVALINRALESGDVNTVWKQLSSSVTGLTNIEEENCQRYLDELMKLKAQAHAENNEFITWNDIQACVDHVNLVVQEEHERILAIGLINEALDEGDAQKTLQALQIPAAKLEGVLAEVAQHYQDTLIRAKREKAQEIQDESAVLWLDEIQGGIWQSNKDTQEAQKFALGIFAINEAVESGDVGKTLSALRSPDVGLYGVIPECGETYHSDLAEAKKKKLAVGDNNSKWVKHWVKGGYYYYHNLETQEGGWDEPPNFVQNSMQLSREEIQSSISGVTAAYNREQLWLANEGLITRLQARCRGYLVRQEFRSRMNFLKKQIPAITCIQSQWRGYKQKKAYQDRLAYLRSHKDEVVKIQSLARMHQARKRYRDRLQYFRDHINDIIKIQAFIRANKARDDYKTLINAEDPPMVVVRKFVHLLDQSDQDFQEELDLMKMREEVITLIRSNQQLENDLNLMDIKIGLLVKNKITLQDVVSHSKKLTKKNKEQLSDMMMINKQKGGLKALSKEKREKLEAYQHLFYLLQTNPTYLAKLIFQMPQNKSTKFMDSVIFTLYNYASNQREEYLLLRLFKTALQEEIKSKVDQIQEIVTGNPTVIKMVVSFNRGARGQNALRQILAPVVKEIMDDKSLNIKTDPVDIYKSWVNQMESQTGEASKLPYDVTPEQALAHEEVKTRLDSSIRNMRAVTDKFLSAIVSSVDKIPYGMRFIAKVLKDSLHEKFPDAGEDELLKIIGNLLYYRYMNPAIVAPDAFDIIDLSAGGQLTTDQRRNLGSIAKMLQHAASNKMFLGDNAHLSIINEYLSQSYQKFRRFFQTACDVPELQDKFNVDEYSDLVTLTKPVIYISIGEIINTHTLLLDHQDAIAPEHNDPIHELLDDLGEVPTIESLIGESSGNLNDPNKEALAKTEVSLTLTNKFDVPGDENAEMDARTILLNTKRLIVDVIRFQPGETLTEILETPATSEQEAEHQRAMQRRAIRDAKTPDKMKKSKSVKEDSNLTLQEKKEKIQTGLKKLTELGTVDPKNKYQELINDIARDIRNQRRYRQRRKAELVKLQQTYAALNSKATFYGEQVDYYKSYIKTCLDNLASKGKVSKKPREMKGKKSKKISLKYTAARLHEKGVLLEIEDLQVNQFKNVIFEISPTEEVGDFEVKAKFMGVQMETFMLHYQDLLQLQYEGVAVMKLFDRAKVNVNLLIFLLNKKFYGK

Molecular target: IQ-containing Ras GTPase like Protein 1 (IQGAP1) (human (endogenous in MDA-MB-231 and MDA-MB-468)) (UniProt P46940)
Experiment: affinity purification with mass spectrometry; IP with IQGAP1-specific monoclonal antibody (IgG as control) and protein A agarose beads from NP40 lysates of MDA-MB-231 or MDA-MB-468 cells treated with DMSO or 20 μM Haldol for 48 hrs; 4 °C; SDS-PAGE, in-gel trypsin digest, MALDI-TOF, Mascot search

- binding: binds
B1: TGF-β1-induced antiapoptotic factor (TIAF1) (protein, UniProt O95411 1-115)
chain: MSSPSSPFREQSFLCAAGDAGEESRVQVLKNEVRRGSPVLLGWVEQAYADKCVCGPSAPPAPTPPSLSQRVMCNDLFKVNPFQLQQFRADPSTASLLLCPGGLDHKLNLRGKAWG

- binding: binds
B2: Zinc Finger DNA-binding protein (ZN835) (protein, UniProt Q9Y2P0 1-537)
chain: MEGLLSVALQGAELEGNWKHEGQVEDLQENQESCPEPEAVACKGDPAGDSMQERDEFSRIPRTISSPAATQASVPDDSSSRRCSAPGESPKERHPDSRQRERGGGPKKPWKCGDCGKAFSYCSAFILHQRIHTGEKPFACPECGKAFSQSVHLTLHQRTHTGEKPYACHECGKAFSQGSYLASHWRTHTGEKPHRCADCGKAFTRVTHLTQHRRVHTGERPYACAQCAKAFRNRSSLIEHQRIHTGEKPYECSACAKAFRFSSALIRHQRIHTEEKPYRCGQCAKAFAQIAHLTQHRRVHTGEKPYTCQDCGALFSQSASLAEHRRIHTGEKPYACGQCAKAFTQVSHLTQHQRTHTGERPYPCHDCGKRFSNRSHLLQHRLVHTGERPYRCLQCGAAFSHVSSLIEHQKIHTGERPYKCGECGKAFSQGSSLALHQRTHTGERPYTCPECGKAFSNRSYLIQHHIVHTGEKPYECSGCGKAFSFSSALIRHQRTHADSSGRLCPAPTPDSTPGLSQGGETCQQGCPGRNPRGPAED

- binding: binds
B3: Coordinated expression to IRXA2 (CEI) (protein, UniProt Q86SI9 36-138)
chain: LASGRLPLAVHSAQHGPGSGAPWLRIARRALRFVLSKHWGDDCYLTNRLWQDLKPPSHVENGQELRLAPPVQWALQVQGNQLQTAVLCLRMAPPEPAGSRQRI

These are yes or no findings as the source states them, for the method shown. In cells and extracts the contact can be indirect. A yes stands for co-enrichment or nearness to the bait. Other partners may have been found. One block for each binder: values may come before it.
